Results are given in words; binding and its absence hold for the method and conditions named. In cells and extracts the contact can be indirect. Some results given as binding are weak or reduced against the parent protein; the word gives no strength. Where a sequence is shown, tags or fusion partners need not be part of it.
T1: GST fusion protein of the α2B-AR third intracellular loop (ICL3) (UniProt P19328)
T1 sequence: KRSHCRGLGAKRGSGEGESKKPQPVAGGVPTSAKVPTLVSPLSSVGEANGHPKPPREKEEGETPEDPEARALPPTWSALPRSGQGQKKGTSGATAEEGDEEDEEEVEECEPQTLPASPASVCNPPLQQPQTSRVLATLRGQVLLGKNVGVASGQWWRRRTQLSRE


Columns and labels:
[1] = target: GST fusion protein of the M3R third intracellular loop (ICL3) (UniProt P20309); assay: pull-down; GST fusion proteins tethered to glutathione beads (MagneGST Pull-Down System), incubated with total lysates of HEK293 cells expressing GFP–Rab43; 20 mM Tris HCl pH 7.5, 140 mM NaCl, 1% Nonidet P-40, 0.5% BSA, 10% glycerol, overnight at 4 °C; immunoblot with GFP antibodies; only the target purified
[2] = target: T1, GST fusion protein of the α2B-AR third intracellular loop (ICL3); assay: as above
[3] = target: venus-tagged M3 muscarinic acetylcholine receptor (UniProt P20309); assay: FRET or BRET; live SHSY5Y cells transfected with 250 ng Rluc-tagged Rab43 and 750 ng venus-tagged receptors; coelenterazine h; net BRET
[4] = target: venus-tagged chimeric receptor M3-2B (M3R mutant containing the α2B-AR ICL3) (UniProt P20309); assay: as above
[5] = target: venus-tagged α2B-adrenergic receptor (UniProt P19328); assay: as above

| binding [1] | binding [2] | binding [3] | binding [4] | binding [5] | Binder |
| --- | --- | --- | --- | --- | --- |
| binds weakly | binds | – | – | – | GFP-tagged Rab43 (protein, UniProt Q86YS6 1-212) MAGPGPGPGDPDEQYDFLFKLVLVGDASVGKTCVVQRFKTGAFSERQGSTIGVDFTMKTLEIQGKRVKLQIWDTAGQERFRTITQSYYRSANGAILAYDITKRSSFLSVPHWIEDVRKYAGSNIVQLLIGNKSDLSELREVSLAEAQSLAEHYDILCAIETSAKDSSNVEEAFLRVATELIMRHGGPLFSEKSPDHIQLNSKDIGEGWGCGC |
| – | – | binds weakly | binds | binds | Rluc-tagged Rab43 (protein, UniProt Q86YS6 1-212) MAGPGPGPGDPDEQYDFLFKLVLVGDASVGKTCVVQRFKTGAFSERQGSTIGVDFTMKTLEIQGKRVKLQIWDTAGQERFRTITQSYYRSANGAILAYDITKRSSFLSVPHWIEDVRKYAGSNIVQLLIGNKSDLSELREVSLAEAQSLAEHYDILCAIETSAKDSSNVEEAFLRVATELIMRHGGPLFSEKSPDHIQLNSKDIGEGWGCGC |

Reference: PMC8050390
